Results are given in words; binding and its absence hold for the method and conditions named. In cells and extracts the contact can be indirect. These calls come from enrichment with a bait or labelling near it, and not all partners need be listed. For part of these data: No binding means not detected with the bait. Where a sequence is shown, tags or fusion partners need not be part of it.
T1: Strep-FLAG-tagged full-length IFT74 (human) (UniProt Q96LB3)
T1 sequence: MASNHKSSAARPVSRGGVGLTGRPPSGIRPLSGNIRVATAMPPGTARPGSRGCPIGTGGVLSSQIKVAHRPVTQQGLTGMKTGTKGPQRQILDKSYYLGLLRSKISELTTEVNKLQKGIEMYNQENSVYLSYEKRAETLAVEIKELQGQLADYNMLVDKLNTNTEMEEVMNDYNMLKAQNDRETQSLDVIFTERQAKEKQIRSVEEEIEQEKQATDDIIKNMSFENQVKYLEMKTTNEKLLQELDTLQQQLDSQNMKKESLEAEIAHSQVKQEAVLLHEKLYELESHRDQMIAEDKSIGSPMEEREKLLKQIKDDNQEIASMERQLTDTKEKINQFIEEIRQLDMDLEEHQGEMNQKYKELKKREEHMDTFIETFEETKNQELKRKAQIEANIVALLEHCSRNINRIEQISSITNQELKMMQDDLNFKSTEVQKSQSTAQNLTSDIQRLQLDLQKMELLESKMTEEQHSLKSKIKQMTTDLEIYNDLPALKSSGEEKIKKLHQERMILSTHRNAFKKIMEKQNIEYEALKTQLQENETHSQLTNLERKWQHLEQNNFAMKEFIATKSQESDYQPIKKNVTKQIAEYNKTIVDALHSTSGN

The chains behind the UniProt entries cited, without tags or fusion partners.
UniProt A0AVF1: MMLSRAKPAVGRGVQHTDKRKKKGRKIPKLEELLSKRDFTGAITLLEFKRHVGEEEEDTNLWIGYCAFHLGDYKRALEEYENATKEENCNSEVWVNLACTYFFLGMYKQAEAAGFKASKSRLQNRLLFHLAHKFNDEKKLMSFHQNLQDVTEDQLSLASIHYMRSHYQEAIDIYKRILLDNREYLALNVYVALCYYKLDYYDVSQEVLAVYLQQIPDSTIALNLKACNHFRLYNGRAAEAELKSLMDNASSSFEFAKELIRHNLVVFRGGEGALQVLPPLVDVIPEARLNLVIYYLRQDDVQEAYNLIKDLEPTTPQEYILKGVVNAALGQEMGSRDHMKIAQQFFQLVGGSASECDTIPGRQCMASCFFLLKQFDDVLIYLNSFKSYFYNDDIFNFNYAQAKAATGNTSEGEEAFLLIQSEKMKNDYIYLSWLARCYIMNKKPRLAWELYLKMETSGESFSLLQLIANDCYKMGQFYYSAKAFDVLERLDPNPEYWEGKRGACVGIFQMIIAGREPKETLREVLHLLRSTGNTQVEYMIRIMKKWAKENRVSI
UniProt Q8IY31: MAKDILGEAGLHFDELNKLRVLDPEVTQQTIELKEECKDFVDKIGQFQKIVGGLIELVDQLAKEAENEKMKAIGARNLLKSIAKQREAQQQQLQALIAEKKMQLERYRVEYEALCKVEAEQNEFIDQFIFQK

T2: Strep-FLAG-tagged truncated IFT74 initiated from M121 (human) (UniProt Q96LB3)
T2 sequence: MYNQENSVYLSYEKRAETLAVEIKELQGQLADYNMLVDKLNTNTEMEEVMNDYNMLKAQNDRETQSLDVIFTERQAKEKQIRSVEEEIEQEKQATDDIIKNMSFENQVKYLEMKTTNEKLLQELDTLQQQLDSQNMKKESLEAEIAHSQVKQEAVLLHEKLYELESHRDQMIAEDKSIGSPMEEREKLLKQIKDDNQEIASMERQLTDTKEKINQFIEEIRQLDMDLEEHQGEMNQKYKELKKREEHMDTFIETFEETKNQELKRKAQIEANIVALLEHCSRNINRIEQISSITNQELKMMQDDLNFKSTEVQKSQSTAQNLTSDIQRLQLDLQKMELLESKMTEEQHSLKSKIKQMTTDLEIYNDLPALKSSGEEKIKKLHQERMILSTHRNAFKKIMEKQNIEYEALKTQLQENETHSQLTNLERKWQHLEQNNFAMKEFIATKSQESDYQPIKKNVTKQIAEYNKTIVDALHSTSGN

T3: Strep-FLAG-tagged truncated IFT74 initiated from M41 (exon 2 deletion mutant) (human) (UniProt Q96LB3)
T3 sequence: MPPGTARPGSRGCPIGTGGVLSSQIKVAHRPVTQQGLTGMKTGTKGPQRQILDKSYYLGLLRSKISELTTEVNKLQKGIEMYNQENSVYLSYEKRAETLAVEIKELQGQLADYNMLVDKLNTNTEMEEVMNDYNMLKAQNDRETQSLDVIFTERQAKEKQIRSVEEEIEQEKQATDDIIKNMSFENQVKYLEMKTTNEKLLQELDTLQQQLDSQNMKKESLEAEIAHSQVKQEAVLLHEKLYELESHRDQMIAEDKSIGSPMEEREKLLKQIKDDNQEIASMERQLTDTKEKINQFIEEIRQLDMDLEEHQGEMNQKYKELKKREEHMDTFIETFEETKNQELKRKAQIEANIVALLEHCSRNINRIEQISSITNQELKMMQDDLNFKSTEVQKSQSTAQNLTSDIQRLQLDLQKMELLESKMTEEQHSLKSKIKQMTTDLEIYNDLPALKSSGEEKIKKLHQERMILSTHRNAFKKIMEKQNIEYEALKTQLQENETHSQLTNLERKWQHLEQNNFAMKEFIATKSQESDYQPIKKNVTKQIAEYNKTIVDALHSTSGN

T4: Strep-FLAG-tagged truncated IFT74 initiated from M80 (human) (UniProt Q96LB3)
T4 sequence: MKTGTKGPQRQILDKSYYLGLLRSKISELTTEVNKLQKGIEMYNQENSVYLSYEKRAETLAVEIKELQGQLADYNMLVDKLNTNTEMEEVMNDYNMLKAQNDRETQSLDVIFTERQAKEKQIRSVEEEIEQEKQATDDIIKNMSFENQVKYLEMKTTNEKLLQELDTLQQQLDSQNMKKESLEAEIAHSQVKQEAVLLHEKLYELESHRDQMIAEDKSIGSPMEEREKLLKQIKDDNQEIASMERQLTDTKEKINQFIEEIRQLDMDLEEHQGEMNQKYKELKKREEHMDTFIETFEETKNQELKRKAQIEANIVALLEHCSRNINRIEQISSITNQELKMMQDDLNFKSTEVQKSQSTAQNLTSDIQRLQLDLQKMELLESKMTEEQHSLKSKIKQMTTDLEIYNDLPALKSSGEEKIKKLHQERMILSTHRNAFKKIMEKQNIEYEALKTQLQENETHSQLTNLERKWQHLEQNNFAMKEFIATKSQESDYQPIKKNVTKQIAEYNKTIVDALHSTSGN

B1: IFT80 (protein, UniProt Q9P2H3 1-777)
chain: MRLKISLLKEPKHQELVSCVGWTTAEELYSCSDDHQIVKWNLLTSETTQIVKLPDDIYPIDFHWFPKSLGVKKQTQAESFVLTSSDGKFHLISKLGRVEKSVEAHCGAVLAGRWNYEGTALVTVGEDGQIKIWSKTGMLRSTLAQQGTPVYSVAWGPDSEKVLYTAGKQLIIKPLQPNAKVLQWKAHDGIILKVDWNSVNDLILSAGEDCKYKVWDSYGRPLYNSQPHEHPITSVAWAPDGELFAVGSFHTLRLCDKTGWSYALEKPNTGSIFNIAWSIDGTQIAGACGNGHVVFAHVVEQHWEWKNFQVTLTKRRAMQVRNVLNDAVDLLEFRDRVIKASLNYAHLVVSTSLQCYVFSTKNWNTPIIFDLKEGTVSLILQAERHFLLVDGSSIYLYSYEGRFISSPKFPGMRTDILNAQTVSLSNDTIAIRDKADEKIIFLFEASTGKPLGDGKFLSHKNEILEIALDQKGLTNDRKIAFIDKNRDLCITSVKRFGKEEQIIKLGTMVHTLAWNDTCNILCGLQDTRFIVWYYPNTVYVDRDILPKTLYERDASEFSKNPHIVSFVGNQVTIRRADGSLVHISITPYPAILHEYVSSSKWEDAVRLCRFVKEQTMWACLAAMAVANRDMTTAEIAYAAIGEIDKVQYINSIKNLPSKESKMAHILLFSGNIQEAEIVLLQAGLVYQAIQININLYNWERALELAVKYKTHVDTVLAYRQKFLETFGKQETNKRYLHYAEGLQIDWEKIKAKIEMEITKEREQSSSSQSSKSIGLKP

Tests used:
Test in all cases: affinity purification with mass spectrometry; Strep-FLAG-tagged IFT74 constructs transfected into HEK293 cells, anti-FLAG immunoprecipitation, LC-MS/MS with label-free quantification, enrichment against the RAF1 Strep-FLAG control, six replicates each
[1] = target: T1, Strep-FLAG-tagged full-length IFT74 (human)
[2] = target: T2, Strep-FLAG-tagged truncated IFT74 initiated from M121 (human)
[3] = target: T3, Strep-FLAG-tagged truncated IFT74 initiated from M41 (exon 2 deletion mutant) (human)
[4] = target: T4, Strep-FLAG-tagged truncated IFT74 initiated from M80 (human)

Molecule	binding [1]	binding [2]	binding [3]	binding [4]
IFT56/TTC26 (from UniProt A0AVF1 1-554)	binds	binds weakly	binds	binds
IFT20 (from UniProt Q8IY31 1-132)	binds	no binding	no binding	no binding
B1	binds	no binding	no binding	binds

Reference: PMC10586200
